This assay deals with T1, D1-Ig (NKp46 domain I fused to Ig) (human), O76036.
T1 chain: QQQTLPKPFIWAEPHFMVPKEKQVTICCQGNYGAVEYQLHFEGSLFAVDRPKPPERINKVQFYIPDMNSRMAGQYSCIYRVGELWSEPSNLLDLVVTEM
The experiment in a line: BIAcore. The settings on record: remark: other sources report otherwise. A general note: SPR reads the build-up and loss of mass on a sensor chip optically.

Results are given in words; binding and its absence hold for the method and conditions named. Some binding calls cover weakened binding; strength is not graded here. Tags and fused reporters may be left off the sequences shown.

B1: mouse anti-NKp46 monoclonal antibody 09 (antibody, V domains shown)
VH: EVQLQQSGPELVKPGTSVKISCKTSGYTFTEYSMHWVKQSHGKSLEWFGGISPNSGGTSYNQKFKGKATLTVDKSSSTAYMELRSLTSEDSAVYYCARRDFHSSFDYWGQGTTLTVSS
VL: DIVMTQSPATLSVTPGDRVSLSCRASQSISDYLHWFQQKSHESPRLLIKYASQSISGIPSRFSGSGSGSDFTLSINSVEPEDVGVYYCQNGHSFPLTFGPGTKLELK
In the case of B1, the binding result was “binds”.
